Experimental data: the supplement of paper PMC8728848
The other results are listed elsewhere or left out.

Experiments:
Experiment in all cases: glycan array binding signal (z-score within array); higher = stronger binding
Conditions in all cases: glycan notation: IUPAC condensed, linker removed
[1] = target: Gal(b1-4)GlcNAc(b1-2)Man(a1-6)[GlcNAc(b1-2)Man(a1-3)]Man(b1-4)GlcNAc(b1-4)GlcNAc
In short: (§1)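 Negative Z-scores can be read as non-binding. The Z-score is calculated within each array and then averaged across arrays of one protein sequence at different concentrations or buffers and across linkers. Arrays, 3228 in all, were curated from the Consortium for Functional Glycomics database and kept only where the protein sequence was available.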

[2] = target: Gal(b1-4)GlcNAc(b1-2)Man(a1-6)[Man(a1-3)]Man(b1-4)GlcNAc(b1-4)GlcNAc
In short: as §1

[3] = target: Gal(b1-4)GlcNAc(b1-2)[Gal(b1-4)GlcNAc(b1-4)]Man(a1-3)[Gal(b1-4)GlcNAc(b1-2)Man(a1-6)]Man(b1-4)GlcNAc(b1-4)GlcNAc
In short: as §1

[4] = target: Gal(b1-4)GlcNAc(b1-2)[Gal(b1-4)GlcNAc(b1-4)]Man(a1-3)[Gal(b1-4)GlcNAc(b1-2)[Gal(b1-4)GlcNAc(b1-6)]Man(a1-6)]Man(b1-4)GlcNAc(b1-4)GlcNAc
In short: as §1

[5] = target: Gal(b1-4)GlcNAc(b1-2)[Gal(b1-4)GlcNAc(b1-4)]Man(a1-3)[GlcNAc(b1-4)][Gal(b1-4)GlcNAc(b1-2)Man(a1-6)]Man(b1-4)GlcNAc(b1-4)GlcNAc
In short: as §1

[6] = target: Gal(b1-4)GlcNAc(b1-2)[Gal(b1-4)GlcNAc(b1-4)]Man(a1-3)[GlcNAc(b1-4)][Gal(b1-4)GlcNAc(b1-2)[Gal(b1-4)GlcNAc(b1-6)]Man(a1-6)]Man(b1-4)GlcNAc(b1-4)GlcNAc
In short: as §1

[7] = target: Gal(b1-4)GlcNAc(b1-2)[Gal(b1-4)GlcNAc(b1-6)]Man(a1-6)[Gal(b1-4)GlcNAc(b1-2)Man(a1-3)]Man(b1-4)GlcNAc(b1-4)GlcNAc
In short: as §1

[8] = target: Gal(b1-4)GlcNAc(b1-2)[Gal(b1-4)GlcNAc(b1-6)]Man(a1-6)[Gal(b1-4)GlcNAc(b1-2)Man(a1-3)]Man(b1-4)GlcNAc(b1-4)[Fuc(a1-6)]GlcNAc
In short: as §1

[9] = target: Gal(b1-4)GlcNAc(b1-2)[Gal(b1-4)GlcNAc(b1-6)]Man(a1-6)[GlcNAc(b1-4)][Gal(b1-4)GlcNAc(b1-2)Man(a1-3)]Man(b1-4)GlcNAc(b1-4)GlcNAc
In short: as §1

[10] = target: Gal(b1-4)GlcNAc(b1-2)[Gal(b1-4)GlcNAc(b1-6)]Man(a1-6)[GlcNAc(b1-4)][Gal(b1-4)GlcNAc(b1-2)[Gal(b1-4)GlcNAc(b1-4)]Man(a1-3)]Man(b1-4)GlcNAc(b1-4)[Fuc(a1-6)]GlcNAc
In short: as §1

[11] = target: Gal(b1-4)GlcNAc(b1-3)Gal(b1-3)GalNAc
In short: as §1

[12] = target: Gal(b1-4)GlcNAc(b1-3)Gal(b1-3)GlcNAc
In short: as §1

[13] = target: Gal(b1-4)GlcNAc(b1-3)Gal(b1-4)Glc
In short: as §1

[14] = target: Gal(b1-4)GlcNAc(b1-3)Gal(b1-4)GlcNAc
In short: as §1

[15] = target: Gal(b1-4)GlcNAc(b1-3)Gal(b1-4)GlcNAc(b1-2)Man(a1-3)[Gal(b1-4)GlcNAc(b1-3)Gal(b1-4)GlcNAc(b1-2)Man(a1-6)]Man(b1-4)GlcNAc(b1-4)GlcNAc
In short: as §1

[16] = target: Gal(b1-4)GlcNAc(b1-3)Gal(b1-4)GlcNAc(b1-2)Man(a1-3)[Gal(b1-4)GlcNAc(b1-3)Gal(b1-4)GlcNAc(b1-2)Man(a1-6)]Man(b1-4)GlcNAc(b1-4)[Fuc(a1-6)]GlcNAc
In short: as §1

[17] = target: Gal(b1-4)GlcNAc(b1-3)Gal(b1-4)GlcNAc(b1-2)[Gal(b1-4)GlcNAc(b1-3)Gal(b1-4)GlcNAc(b1-6)]Man(a1-6)[Gal(b1-4)GlcNAc(b1-3)Gal(b1-4)GlcNAc(b1-2)Man(a1-3)]Man(b1-4)GlcNAc(b1-4)GlcNAc
In short: as §1

[18] = target: Gal(b1-4)GlcNAc(b1-3)Gal(b1-4)GlcNAc(b1-2)[Gal(b1-4)GlcNAc(b1-3)Gal(b1-4)GlcNAc(b1-6)]Man(a1-6)[Gal(b1-4)GlcNAc(b1-3)Gal(b1-4)GlcNAc(b1-2)Man(a1-3)]Man(b1-4)GlcNAc(b1-4)[Fuc(a1-6)]GlcNAc
In short: as §1

B1: MtEccB1 (Mycobacterium tuberculosis H37Rv), O69734 (protein)
chain: MGLRLTTKVQVSGWRFLLRRLEHAIVRRDTRMFDDPLQFYSRSIALGIVVAVLILAGAALLAYFKPQGKLGGTSLFTDRATNQLYVLLSGQLHPVYNLTSARLVLGNPANPATVKSSELSKLPMGQTVGIPGAPYATPVSAGSTSIWTLCDTVARADSTSPVVQTAVIAMPLEIDASIDPLQSHEAVLVSYQGETWIVTTKGRHAIDLTDRALTSSMGIPVTARPTPISEGMFNALPDMGPWQLPPIPAAGAPNSLGLPDDLVIGSVFQIHTDKGPQYYVVLPDGIAQVNATTAAALRATQAHGLVAPPAMVPSLVVRIAERVYPSPLPDEPLKIVSRPQDPALCWSWQRSAGDQSPQSTVLSGRHLPISPSAMNMGIKQIHGTATVYLDGGKFVALQSPDPRYTESMYYIDPQGVRYGVPNAETAKSLGLSSPQNAPWEIVRLLVDGPVLSKDAALLEHDTLPADPSPRKVPAGASGAP
- glycan array binding signal (z-score) [1]: 0.57
- glycan array binding signal (z-score) [2]: 2.86
- glycan array binding signal (z-score) [3]: -0.518
- glycan array binding signal (z-score) [4]: -0.134
- glycan array binding signal (z-score) [5]: 0.173
- glycan array binding signal (z-score) [6]: -0.941
- glycan array binding signal (z-score) [7]: -0.552
- glycan array binding signal (z-score) [8]: 0.172
- glycan array binding signal (z-score) [9]: -1.21
- glycan array binding signal (z-score) [10]: -1.2
- glycan array binding signal (z-score) [11]: -0.574
- glycan array binding signal (z-score) [12]: -1.23
- glycan array binding signal (z-score) [13]: 0.106
- glycan array binding signal (z-score) [14]: 0.131
- glycan array binding signal (z-score) [15]: 0.695
- glycan array binding signal (z-score) [16]: 1.86
- glycan array binding signal (z-score) [17]: 2.86
- glycan array binding signal (z-score) [18]: 0.497
